Test results published in paper PMC11750977.
No constants are given. Whether binding was seen depends on the method and setting. In cells and extracts the contact can be indirect. Some results given as binding are weak or reduced against the parent protein; the word gives no strength. For some assays here: Tags and fused reporters may be left off the sequences shown. Values belong to the molecule of their own block, whether it stands above or below them.

Sequences of proteins named here, by UniProt entry; tags and fusion partners are left off. Residues count along the entry.
UniProt P35968, residues 20-1356: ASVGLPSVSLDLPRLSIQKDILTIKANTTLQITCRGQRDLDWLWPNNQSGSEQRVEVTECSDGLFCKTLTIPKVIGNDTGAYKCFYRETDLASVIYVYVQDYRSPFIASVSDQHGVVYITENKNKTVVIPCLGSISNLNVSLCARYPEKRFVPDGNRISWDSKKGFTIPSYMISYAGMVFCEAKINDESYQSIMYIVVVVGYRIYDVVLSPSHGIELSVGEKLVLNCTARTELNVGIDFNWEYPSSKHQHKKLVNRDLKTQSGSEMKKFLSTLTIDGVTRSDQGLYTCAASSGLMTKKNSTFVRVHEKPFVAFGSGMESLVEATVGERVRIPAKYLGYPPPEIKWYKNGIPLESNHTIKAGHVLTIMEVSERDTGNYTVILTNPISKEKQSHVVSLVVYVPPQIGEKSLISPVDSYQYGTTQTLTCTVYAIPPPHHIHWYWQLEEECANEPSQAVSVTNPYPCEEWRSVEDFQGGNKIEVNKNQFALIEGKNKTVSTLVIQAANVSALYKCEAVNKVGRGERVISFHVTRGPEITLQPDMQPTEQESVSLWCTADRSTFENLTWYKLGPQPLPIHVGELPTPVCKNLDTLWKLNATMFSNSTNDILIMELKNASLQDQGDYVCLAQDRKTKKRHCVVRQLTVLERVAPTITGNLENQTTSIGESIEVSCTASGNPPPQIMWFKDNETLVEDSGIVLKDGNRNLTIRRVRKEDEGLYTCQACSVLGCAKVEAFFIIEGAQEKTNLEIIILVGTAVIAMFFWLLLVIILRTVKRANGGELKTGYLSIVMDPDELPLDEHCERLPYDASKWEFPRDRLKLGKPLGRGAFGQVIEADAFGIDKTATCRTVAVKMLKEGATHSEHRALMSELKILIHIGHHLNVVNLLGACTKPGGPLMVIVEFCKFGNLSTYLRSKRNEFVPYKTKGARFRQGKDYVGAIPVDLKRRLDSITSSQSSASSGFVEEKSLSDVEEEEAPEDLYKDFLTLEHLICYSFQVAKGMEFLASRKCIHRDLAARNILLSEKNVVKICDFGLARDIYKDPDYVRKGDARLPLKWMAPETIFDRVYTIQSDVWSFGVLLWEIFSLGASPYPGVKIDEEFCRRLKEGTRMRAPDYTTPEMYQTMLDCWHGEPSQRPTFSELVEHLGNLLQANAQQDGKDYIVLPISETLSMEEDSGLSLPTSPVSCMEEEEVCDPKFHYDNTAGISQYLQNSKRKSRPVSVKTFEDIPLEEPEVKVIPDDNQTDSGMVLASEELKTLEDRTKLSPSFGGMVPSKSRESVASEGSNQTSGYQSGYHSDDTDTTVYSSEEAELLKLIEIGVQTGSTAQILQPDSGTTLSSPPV

How the values were obtained:
[1] = target: T1, Myc-tagged MARCH5 in HEK293T cells (UniProt Q9NX47); experiment: co-IP; lysates of HEK293T cells transfected with Myc-MARCH5 and HA-VEGFR2 plasmids with or without PCDH17-Flag adenovirus; anti-Myc, anti-FLAG or anti-HA with protein A/G magnetic beads, 4 °C overnight; western blotting
T1 sequence: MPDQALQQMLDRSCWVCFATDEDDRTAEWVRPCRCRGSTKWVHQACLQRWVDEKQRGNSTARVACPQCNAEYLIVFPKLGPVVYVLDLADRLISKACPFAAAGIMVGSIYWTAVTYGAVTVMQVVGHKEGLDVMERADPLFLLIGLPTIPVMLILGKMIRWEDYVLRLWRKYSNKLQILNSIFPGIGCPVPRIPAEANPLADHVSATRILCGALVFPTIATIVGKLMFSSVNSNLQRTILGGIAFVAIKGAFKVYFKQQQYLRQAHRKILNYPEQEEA

[2] = target: T2, VE-cadherin in HUVECs (human (endogenous in HUVECs)), P33151; experiment: co-IP; lysates of HUVECs with or without PCDH17 overexpression; anti-VE-cadherin with protein A/G magnetic beads, 4 °C overnight; western blotting; conditions: remark: other sources report otherwise
T2 chain: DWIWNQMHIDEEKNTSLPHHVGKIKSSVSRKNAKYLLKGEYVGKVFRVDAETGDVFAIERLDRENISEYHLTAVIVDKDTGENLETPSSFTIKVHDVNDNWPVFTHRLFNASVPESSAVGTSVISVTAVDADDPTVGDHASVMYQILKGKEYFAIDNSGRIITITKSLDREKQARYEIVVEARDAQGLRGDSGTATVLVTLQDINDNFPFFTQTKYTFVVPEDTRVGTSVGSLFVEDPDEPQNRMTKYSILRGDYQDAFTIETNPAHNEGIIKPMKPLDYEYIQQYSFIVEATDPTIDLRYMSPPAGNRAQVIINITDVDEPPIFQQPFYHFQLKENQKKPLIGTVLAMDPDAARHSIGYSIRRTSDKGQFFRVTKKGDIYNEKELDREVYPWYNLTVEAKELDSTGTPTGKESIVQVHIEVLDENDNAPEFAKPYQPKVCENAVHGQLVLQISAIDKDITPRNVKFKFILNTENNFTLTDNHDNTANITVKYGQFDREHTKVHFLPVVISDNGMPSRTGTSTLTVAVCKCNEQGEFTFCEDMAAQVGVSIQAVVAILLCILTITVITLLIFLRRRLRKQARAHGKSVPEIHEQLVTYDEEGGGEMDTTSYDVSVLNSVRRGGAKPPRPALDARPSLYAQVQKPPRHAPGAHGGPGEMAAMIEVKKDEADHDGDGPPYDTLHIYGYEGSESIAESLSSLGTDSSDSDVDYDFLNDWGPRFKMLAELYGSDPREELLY

binding [1]: binds
Molecule: HA-VEGFR2 in HEK293T cells (from UniProt P35968 20-1356) (receptor)

binding [2]: binds
B1: β-catenin in HUVECs, P35222 1-781 (protein)
chain: MATQADLMELDMAMEPDRKAAVSHWQQQSYLDSGIHSGATTTAPSLSGKGNPEEEDVDTSQVLYEWEQGFSQSFTQEQVADIDGQYAMTRAQRVRAAMFPETLDEGMQIPSTQFDAAHPTNVQRLAEPSQMLKHAVVNLINYQDDAELATRAIPELTKLLNDEDQVVVNKAAVMVHQLSKKEASRHAIMRSPQMVSAIVRTMQNTNDVETARCTAGTLHNLSHHREGLLAIFKSGGIPALVKMLGSPVDSVLFYAITTLHNLLLHQEGAKMAVRLAGGLQKMVALLNKTNVKFLAITTDCLQILAYGNQESKLIILASGGPQALVNIMRTYTYEKLLWTTSRVLKVLSVCSSNKPAIVEAGGMQALGLHLTDPSQRLVQNCLWTLRNLSDAATKQEGMEGLLGTLVQLLGSDDINVVTCAAGILSNLTCNNYKNKMMVCQVGGIEALVRTVLRAGDREDITEPAICALRHLTSRHQEAEMAQNAVRLHYGLPVVVKLLHPPSHWPLIKATVGLIRNLALCPANHAPLREQGAIPRLVQLLVRAHQDTQRRTSMGGTQQQFVEGVRMEEIVEGCTGALHILARDVHNRIVIRGLNTIPLFVQLLYSPIENIQRVAAGVLCELAQDKEAAEAIEAEGATAPLTELLHSRNEGVATYAAAVLFRMSEDKPQDYKKRLSVELTSSLFRTEPMAWNETADLGLDIGAQGEPLGYRQDDPSYRSFHSGGYGQDALGMDPMMEHEMGGHHPGADYPVDGLPDLGHAQDLMDGLPPGDSNQLAWFDTDL
